Source: PubChem BioAssay AID1347426 (Functional Genomics Laboratory (NCATS/FGL), 2020)
Hit rate of the full screen: of about 31,000 sequences, about 1,400 (4.5%) were called active.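 The calls were made as follows: active = median seed-adjusted z-score above 1 or below -1; inactive = the rest.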 This is one part of the list.

Test: Novel Modifiers of Survival Motor Neuron (SMN) Protein: Gene Identification via Genome-wide siRNA Screen;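 also: luminescence tracks full-length SMN protein made from the SMN2 reporter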
Settings: HEK293T SMN2-luciferase reporter, siRNA knockdown, 72 h; actives lie on both sides
Method in brief: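 Luciferase signal, proportional to full-length SMN made from an SMN2 cDNA reporter in stable HEK293T cells, was read 72 h after siRNA reverse transfection. Values were expressed as MAD scores after non-targeting-control normalization and log10 conversion; seed analysis flagged off-targets.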

Row | Sequence | median seed-adjusted z-score
1 | GCUGUAACGAAGUUCCUGATT against TPP1 | inactive: -0.0334
2 | GGGACAAUCUUAUAGUGCATT against SSX2IP | inactive: -0.0799
3 | GGAUGUAAGAUCACCGUUUTT against ASMT | inactive: -0.322
4 | GCAUUUGCCUUAGAGAAGATT against ZNF592 | inactive: 0.0774
5 | UGAGGAGGGCUAUUACAAATT against SPOCK1 | inactive: -0.596
6 | CCAUGGAACUGGUUAGAUUTT against SCN8A | inactive: 0
7 | UCUGAGUAAAGUUACCUUATT against RAMP3 | inactive: 0
8 | GAACUACGCCUCCAUCAUATT against MYCL1 | inactive: 0.0658
9 | GCACAAAUCUCAAUAUUCATT against GPSM3 | inactive: -0.641
10 | CAGAUGAACAUGUACGGCATT against LPAR5 | inactive: 0.0711
11 | GCACGUAUGAUCUCUCUAATT against RIPK2 | inactive: 0.176
12 | GGAGAGGGUUGACAAAGUATT against PCYT1A | inactive: 0.0429
13 | GCACUAGACUCAGCUGUAUTT against TYSND1 | inactive: -0.0298
14 | CUACAACAUCCAGCCUAAATT against STON1-GTF2A1L | inactive: 0.294
15 | GGACGACACUUCAAUUAUUTT against PAPD5 | inactive: 0.325
16 | UGAACAUGAUGCACAUCUATT against RHD | inactive: 0.496
17 | GGUUAAGUCAGCUUAGGUATT against DNAH7 | inactive: 0.287
18 | GGUCUCUUCUAUCACUGUUTT against SPRY2 | inactive: 0.148
19 | GGCCCAUUCUGGGAUCAGUTT against POFUT1 | inactive: 0
20 | GCAUCCAUAGAGUAAUAAATT against ZNF444 | inactive: -0.218
21 | GAGGCCAGGUUGAAAGCUUTT against SLC25A45 | inactive: -0.246
22 | GGCAUGGGAUGGACAGAGATT against ZNF444 | inactive: -0.218
23 | GGUAAUGAAUAUUCGAACATT against MAN1A1 | inactive: 0

Nothing new here: an excerpt of the list.
Row | Sequence | median seed-adjusted z-score
5 | UGAGGAGGGCUAUUACAAATT against SPOCK1 | inactive: -0.596
6 | CCAUGGAACUGGUUAGAUUTT against SCN8A | inactive: 0
7 | UCUGAGUAAAGUUACCUUATT against RAMP3 | inactive: 0

Remaining list, next part:

Row | Sequence | median seed-adjusted z-score
24 | GAAUAGUUAGGAUACCAAUTT against EFHD1 | inactive: -0.326
25 | GCCUGUCAAUUCUUAUAUATT against SLC10A5 | inactive: 0.539
26 | GGAGAAGAAUUUCACGAGATT against VPS41 | inactive: 0.52
27 | AGAUCGACAAGAUGCAAGATT against FOXN1 | inactive: 0.226
28 | CGAUCGAUGUGAUCAUCUUTT against AGPAT6 | inactive: 0
29 | AGAUUAAGGAUAUGGAUGATT against CHRNA9 | inactive: -0.454
30 | GGUGGGAGAUUGAACGGGATT against RNF113B | inactive: -0.228
31 | GCAUUUGUUUGGGUUGCGATT against MTF2 | inactive: 0
32 | AAAGGAAUUGGGAACUGUATT against CALM2 | inactive: 0.127
33 | CGGAAAACCUGCAAUCCUATT against PIK3C2B | inactive: -0.653
34 | GCUCAGAUAAAGUACAGAATT against GGCX | inactive: -0.362
35 | CUGCAGUUGUGGUUGGAUATT against AOF2 | inactive: -0.215
36 | AAUACGUGGAAGAAUCUAATT against LETM1 | inactive: -0.491
37 | GGAUGAUCUUGUAACUCGATT against STX8 | inactive: 0.475
38 | CUAUUGCAGGUUUGACUAUTT against PGM5 | inactive: -0.0543
39 | CAUCAAUUCUUCGACAGGATT against PPP3CA | inactive: 0.74
40 | GAAUGUGGUUUUUGUUAUUTT against ITIH5L | inactive: -0.407
41 | GCACCUUUAUCGCAAGUAUTT against CSGALNACT1 | inactive: -0.235
42 | CGAGUAUACAGUAUACAGATT against CHAF1B | inactive: 0.634
43 | GCAAUUGUCUGAUUAAUCATT against MB | inactive: 0.504
44 | GAAACGUGGUGAGACCUCATT against PRKX | inactive: 0.0341
45 | GAGUUUGGAAAGUUACUAATT against EIF3J | inactive: -0.411
46 | CCGCUGGAAAUAUCACUUUTT against GCNT3 | inactive: 0

Row | Sequence | median seed-adjusted z-score
47 | GAGUCGAGAAGAUAAUGGATT against RABGEF1 | inactive: 0.278
48 | GGCUAUCUUGGAUGCAGAATT against TBC1D10A | inactive: -0.722
49 | AAUUCUUCGUCAAAGUCUATT against TRNAU1AP | inactive: 0.52
50 | GCAGCUGCCCAAACAGUUUTT against CRTC2 | inactive: -0.691
51 | GGAAGAUCUUGGACUUAUUTT against JARID1B | inactive: 0
52 | GACCCUCACUAGUAAACUUTT against GBP3 | inactive: -0.864
53 | GACGAGCUGUUCGACGUAATT against COPE | inactive: 0.499
54 | CGAUGCACCUGUACGAUCATT against IL1B | inactive: -0.21
55 | ACCGAGACCUCAAACCUGATT against PSKH1 | active: -2.03
56 | GGAAUAACAGUUGUAGGAATT against TMTC3 | inactive: 0.266
57 | GGACCACCUAUGGACUAUATT against RBM6 | inactive: 0.193
58 | GUUCUACCGUGGACAGCAATT against CLCN1 | inactive: 0.314
59 | GCAUCCGCAACUUCACUGATT against SLC7A4 | inactive: -0.102
60 | CAUACGCAGAACAAAGUUATT against KHDRBS1 | inactive: 0.0916
61 | CAUUGACCGCACAAACUUUTT against ACYP2 | inactive: 0.286
62 | CCAAUGUGCUGUUCGCCUATT against ZNHIT2 | inactive: -0.339
63 | CAAACCAGUUAAUCCAGAATT against ALK | inactive: 0.0139
64 | CAGUUAUGGUCUAACCAUUTT against CYP1B1 | inactive: -0.261
65 | AAAAUGUCUUGAGAAGAUATT against EIF2S2 | inactive: 0.576
66 | AGAAGUCUGUUGCUAUGCATT against GNB5 | inactive: -0.535
67 | GUGUUGACAUGAGUACCAATT against ARAF | inactive: 0.535
68 | GAAAUACUGUCGGACAGAATT against MAN1C1 | inactive: -0.548
